Reference: doi:10.1101/2024.06.26.600663

How the values were obtained:
[1] = target: Pmc4-Pk (expressed from its endogenous locus in fission yeast) (Schizosaccharomyces pombe (fission yeast)); experiment: co-IP
[2] = target: GST-Pmc4 (full-length Pmc4) (Schizosaccharomyces pombe (fission yeast)); experiment: pull-down + SEC

binding [1]	binding [2]	Binder
binds	–	Cnd1-Myc (wild type, expressed from its endogenous locus in fission yeast) (protein, UniProt O94679 1-1158) MSLDLLSRLKKYIHDEENSDLDSIYAECENAGLTAVVNDVIDTLLLGTSSCFDEDCLEKLFAICSHFADLSSSVRNKVYDLLTSNISSESAILEDMISANATDFTVPQTNLETTGIAFQLTVNSLSSSNQLSVIRSSTNTVKGRKKNPTTNSNWNGISHVNALLDAIITLFQKKLSRVWTTSSERDMFLSLFLKPIYTLMESEINIKNASFRSRLFNIIGLAVQFHNHTTAAETNIIQNLQYFEHLSEYAADLVHIVTVQFNSVTLAEGIIRTLCSLEFNDNDVKGPKQVALFLVRLSSLIPNLCLKQLTQLVKLLDSESYTLRCAIIEVLANVVIDQIHDEAQNEMSESVPATVQSLMDLLSERLLDISPYCRTKVLHVFIKIFDLPIKYPRKRQEIAELVIRCLQDRSSHVRRNAIKLFSKLLTTHPFSVMHNGLLTRNIWEKGLSIIEEQLNSLQPKQQEKVVDSELEVDENLLEDATMIQDDESHEGESHLENSLSEYVDSVPAEEIVKVNLTKRFYLEALQYIDIVEAGAKIISQLLFAKNKSEVIESMDFFVFCNSFGISSSKLYIKKMIHLIWVKGTSDEGNNIQNHVLSCYKTLFFEPPPNSGTNEAANYIARNLISLTYDASLAELTSLEQMLCILMKDGYFSHLVITKLWQVYSYQKKDISRTQRRGSIIVIGMLALGNTDVVMQGLDHLIQIGLGPPGLEDLVLARYTCIAIKRIGKDASGSSNINFPNSHTLCQKLCMLLLRPSFSEEWFGLEEQAIEAIYAVAKHPDELCTNIILLLTKQLFKPSNHENTTSNDDHAMDEDLDDSPEEETLKDEEEIGIRLAHLIFLVGHVAIKQLVYIEYCEAEFKRRKADAERLAVQNSNNPINGQETSEYDLITGTSEDDFSEAMTFIRERELLYGENSLLSRFAPLVVELCSNHKSHNNQSLLLAASLTLSKFMCLSNNFCMEHLPLLITILEKCDNPIIRNNLVIGLADLTVCFNHFIDEISEYLYRRLMDEESSVKKTCFMTLAFLILAGQIKVKGQLGIMARSLEDEDARISDLARMFFTDFAAKDNSVYNNFIDIFSVLSRSAEEQDEDDAKFKRIIRFLTSFIEKERHTKQLAERLAARLDRCKTQRQWDHVVYALSLLPHKADNIQKLIDDGYHE
–	binds	His-Cnd1 (full-length Cnd1) (protein, UniProt O94679 1-1158) MSLDLLSRLKKYIHDEENSDLDSIYAECENAGLTAVVNDVIDTLLLGTSSCFDEDCLEKLFAICSHFADLSSSVRNKVYDLLTSNISSESAILEDMISANATDFTVPQTNLETTGIAFQLTVNSLSSSNQLSVIRSSTNTVKGRKKNPTTNSNWNGISHVNALLDAIITLFQKKLSRVWTTSSERDMFLSLFLKPIYTLMESEINIKNASFRSRLFNIIGLAVQFHNHTTAAETNIIQNLQYFEHLSEYAADLVHIVTVQFNSVTLAEGIIRTLCSLEFNDNDVKGPKQVALFLVRLSSLIPNLCLKQLTQLVKLLDSESYTLRCAIIEVLANVVIDQIHDEAQNEMSESVPATVQSLMDLLSERLLDISPYCRTKVLHVFIKIFDLPIKYPRKRQEIAELVIRCLQDRSSHVRRNAIKLFSKLLTTHPFSVMHNGLLTRNIWEKGLSIIEEQLNSLQPKQQEKVVDSELEVDENLLEDATMIQDDESHEGESHLENSLSEYVDSVPAEEIVKVNLTKRFYLEALQYIDIVEAGAKIISQLLFAKNKSEVIESMDFFVFCNSFGISSSKLYIKKMIHLIWVKGTSDEGNNIQNHVLSCYKTLFFEPPPNSGTNEAANYIARNLISLTYDASLAELTSLEQMLCILMKDGYFSHLVITKLWQVYSYQKKDISRTQRRGSIIVIGMLALGNTDVVMQGLDHLIQIGLGPPGLEDLVLARYTCIAIKRIGKDASGSSNINFPNSHTLCQKLCMLLLRPSFSEEWFGLEEQAIEAIYAVAKHPDELCTNIILLLTKQLFKPSNHENTTSNDDHAMDEDLDDSPEEETLKDEEEIGIRLAHLIFLVGHVAIKQLVYIEYCEAEFKRRKADAERLAVQNSNNPINGQETSEYDLITGTSEDDFSEAMTFIRERELLYGENSLLSRFAPLVVELCSNHKSHNNQSLLLAASLTLSKFMCLSNNFCMEHLPLLITILEKCDNPIIRNNLVIGLADLTVCFNHFIDEISEYLYRRLMDEESSVKKTCFMTLAFLILAGQIKVKGQLGIMARSLEDEDARISDLARMFFTDFAAKDNSVYNNFIDIFSVLSRSAEEQDEDDAKFKRIIRFLTSFIEKERHTKQLAERLAARLDRCKTQRQWDHVVYALSLLPHKADNIQKLIDDGYHE

No constants are given. Whether binding was seen depends on the method and setting. Binding seen in cells or lysates may run through a third protein. Binding can be weak; no strength is given. Tags and fused reporters may be left off the sequences shown.
